Where “and” joins values, the source holds several entries; their conditions need not be identical. Identical values can stand only once. For at least one compound, name, drawing or mass did not settle the structure.
Columns and labels:
[1] = test system: adult female rats with normal cycles; assay: Ovulation inhibition test on rats; assay type: in vivo, rat; settings: 0.01 mg per animal s.c., limit dose finding
Experimental: The efficacy of the composition according to the invention was ascertained by ovulation-inhibiting studies carried out on adult female rats with normal cycles. First, using 5 dose groups plus placebo (0.003 mg, 0.01 mg, 0.03 mg, 0.1 mg and 0.3 mg), the limit dose of levonorgestrel (LNG) was determined at which there is still no ovulation-inhibiting effect.
With the dose of LNG thus determined (0.01 mg), a comparison test was then carried out in which the ovulation-inhibiting effect of LNG, placebo, meloxicam, piroxicam, and the combination of LNG and meloxicam, was compared against the composition, according to the invention, of LNG plus piroxicam.
With the onset of the metestrus, 5 animals in each case were treated on four successive days with (a) placebo, (b) 0.01 mg of LNG, (c) 2 mg of piroxicam, (d) 0.01 mg of LNG and 2 mg of piroxicam, (e) 2 mg of meloxicam, and (f) […] of LNG and 3 mg of meloxicam. LNG was given by s.c. administration, and the COX inhibitor was given orally (p.o.).
In the following test, female rats weighing between 200 and 220 g were used. […]
Two cycles were monitored using vaginal smears before the start of the test. […] Starting in the metestrus, the test substance was administered for 4 days (days 1-4) and the cycle continued to be monitored. […]

[2] = test system: ovulation; settings: 21-day use, listed as Levonorgestrel (LNG); cited from earlier work

SMILES: C#C[C@]1(O)CC[C@H]2[C@@H]3CCC4=CC(=O)CC[C@@H]4[C@H]3CC[C@@]21CC [LNG, levonorgestrel]
- ovulation-inhibiting effect [1]: still has no ovaulation-inhibiting effect
- minimal dose for inhibition of ovulation, p.o. dose/day [2]: 50 µg and 60 µg
